Laboratory results taken from patent publication US20050032810A1, “Novel anthelmintic and insecticidal compositions” (priority 2003, published 2005).
The match of structure and compound is tentative.

The chains behind the UniProt entries cited, without tags or fusion partners. Residues count along the entry.
UniProt Q7KRX1, 1-357: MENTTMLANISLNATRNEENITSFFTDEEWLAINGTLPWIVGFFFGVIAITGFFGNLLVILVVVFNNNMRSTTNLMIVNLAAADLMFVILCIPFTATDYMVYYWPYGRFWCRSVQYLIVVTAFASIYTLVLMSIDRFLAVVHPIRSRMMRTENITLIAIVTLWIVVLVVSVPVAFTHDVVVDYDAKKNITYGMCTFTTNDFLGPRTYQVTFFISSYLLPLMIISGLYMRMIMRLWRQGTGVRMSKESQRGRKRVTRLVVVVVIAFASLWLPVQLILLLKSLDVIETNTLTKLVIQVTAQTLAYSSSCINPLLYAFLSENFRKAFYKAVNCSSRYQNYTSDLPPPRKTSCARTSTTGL

Molecular target: Drosophila type 2 allatostatin receptor (Dm4) (Drosophila melanogaster, UniProt Q7KRX1)

Compound: CC(C)C[C@H](NC(=O)CNC(=O)[C@H](Cc1ccccc1)NC(=O)[C@H](CO)NC(=O)[C@H](Cc1ccc(O)cc1)NC(=O)[C@@H]1CCCN1C(=O)[C@H](CCCNC(=N)N)NC(=O)[C@@H](N)CO)C(N)=O
- IC50: 0.01 nM

Compound: CC(C)C[C@H](NC(=O)CNC(=O)[C@H](Cc1ccccc1)NC(=O)[C@H](CO)NC(=O)[C@H](Cc1ccc(O)c([125I])c1)NC(=O)[C@@H]1CCCN1C(=O)[C@H](CCCNC(=N)N)NC(=O)[C@@H](N)CO)C(N)=O
- Kd: 0.081 nM
